Reference: publication PMC4986891

Sequences of proteins named here, by UniProt entry; tags and fusion partners are left off. A change or cut given only in a name is not applied to a line headed by its entry.
UniProt Q1MTR2: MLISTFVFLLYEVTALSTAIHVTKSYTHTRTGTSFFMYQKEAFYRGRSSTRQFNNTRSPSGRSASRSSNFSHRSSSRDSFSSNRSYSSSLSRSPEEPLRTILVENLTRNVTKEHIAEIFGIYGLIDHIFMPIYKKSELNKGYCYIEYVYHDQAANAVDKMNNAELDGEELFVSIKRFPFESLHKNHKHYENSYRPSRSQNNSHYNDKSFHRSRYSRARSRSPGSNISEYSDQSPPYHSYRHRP
UniProt Q10055: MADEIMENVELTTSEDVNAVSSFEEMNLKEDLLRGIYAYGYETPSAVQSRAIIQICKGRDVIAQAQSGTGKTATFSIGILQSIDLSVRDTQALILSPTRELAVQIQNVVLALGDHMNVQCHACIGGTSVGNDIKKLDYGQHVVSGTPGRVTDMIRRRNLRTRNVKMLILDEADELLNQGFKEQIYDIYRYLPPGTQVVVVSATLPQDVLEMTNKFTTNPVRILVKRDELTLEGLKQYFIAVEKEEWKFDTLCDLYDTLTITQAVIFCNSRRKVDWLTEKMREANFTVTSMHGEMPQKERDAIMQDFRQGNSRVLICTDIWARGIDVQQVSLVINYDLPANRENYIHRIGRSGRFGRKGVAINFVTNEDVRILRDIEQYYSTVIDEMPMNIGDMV

Target: Rnps1-GFP (S. pombe) (UniProt Q1MTR2)
Assay: co-IP; S. pombe whole-cell lysates (Benzonase-treated) of strains with epitope-tagged proteins; FTP-tagged proteins pulled down with IgG Sepharose, Myc-, HA- and GFP-tagged proteins with Protein A/G agarose and antibody; IP 2 h at 4 C; Western blot; also done in strains lacking Y14 or Rnps1

binding: binds
Substance: pFal1-Myc (from UniProt Q10055 1-394)

No constants are given. Whether binding was seen depends on the method and setting. Binding seen in cells or lysates may run through a third protein. A result given as binding can be weak or reduced; the word gives no strength.
